Data as given in the supplement of paper PMC12595434, “Development of retinoid nuclear receptor pathway antagonists through targeting aldehyde dehydrogenase 1A3” (iScience, 2025).
This is one part of the list. This is a noisy data set.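 Many melting curves are irregular; where none melted, Tm was taken as 64 °C.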

Chains of the proteins cited; added tags and fusions are not shown. Lines headed by an entry give the natural chain unless they say otherwise; changes in a name come on top.
UniProt Q86YS7: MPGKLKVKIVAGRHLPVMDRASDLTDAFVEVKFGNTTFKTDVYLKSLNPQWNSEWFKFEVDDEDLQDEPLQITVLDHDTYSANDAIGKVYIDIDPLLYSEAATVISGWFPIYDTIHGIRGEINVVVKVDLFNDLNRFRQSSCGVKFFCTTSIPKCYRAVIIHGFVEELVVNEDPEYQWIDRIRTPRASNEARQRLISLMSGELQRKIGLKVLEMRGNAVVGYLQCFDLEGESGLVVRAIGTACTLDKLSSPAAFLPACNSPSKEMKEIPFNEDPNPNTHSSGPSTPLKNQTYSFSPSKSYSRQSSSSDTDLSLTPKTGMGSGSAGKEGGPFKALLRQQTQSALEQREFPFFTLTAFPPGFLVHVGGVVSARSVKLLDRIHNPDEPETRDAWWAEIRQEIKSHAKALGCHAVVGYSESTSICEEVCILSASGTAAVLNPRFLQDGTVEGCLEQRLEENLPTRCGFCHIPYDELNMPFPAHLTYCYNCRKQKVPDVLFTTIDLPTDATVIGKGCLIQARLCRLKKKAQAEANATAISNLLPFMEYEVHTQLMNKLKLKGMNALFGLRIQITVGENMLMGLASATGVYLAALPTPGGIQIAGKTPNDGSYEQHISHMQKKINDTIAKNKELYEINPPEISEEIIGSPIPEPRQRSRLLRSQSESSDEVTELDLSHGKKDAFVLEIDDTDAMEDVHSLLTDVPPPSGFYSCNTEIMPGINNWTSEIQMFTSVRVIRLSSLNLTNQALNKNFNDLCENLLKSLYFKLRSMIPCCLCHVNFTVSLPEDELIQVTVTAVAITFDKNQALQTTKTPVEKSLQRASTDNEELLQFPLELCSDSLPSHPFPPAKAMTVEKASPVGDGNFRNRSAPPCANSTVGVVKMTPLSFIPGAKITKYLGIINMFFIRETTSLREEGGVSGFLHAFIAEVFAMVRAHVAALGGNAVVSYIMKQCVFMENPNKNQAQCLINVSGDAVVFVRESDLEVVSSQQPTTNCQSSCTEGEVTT
UniProt Q86WB0: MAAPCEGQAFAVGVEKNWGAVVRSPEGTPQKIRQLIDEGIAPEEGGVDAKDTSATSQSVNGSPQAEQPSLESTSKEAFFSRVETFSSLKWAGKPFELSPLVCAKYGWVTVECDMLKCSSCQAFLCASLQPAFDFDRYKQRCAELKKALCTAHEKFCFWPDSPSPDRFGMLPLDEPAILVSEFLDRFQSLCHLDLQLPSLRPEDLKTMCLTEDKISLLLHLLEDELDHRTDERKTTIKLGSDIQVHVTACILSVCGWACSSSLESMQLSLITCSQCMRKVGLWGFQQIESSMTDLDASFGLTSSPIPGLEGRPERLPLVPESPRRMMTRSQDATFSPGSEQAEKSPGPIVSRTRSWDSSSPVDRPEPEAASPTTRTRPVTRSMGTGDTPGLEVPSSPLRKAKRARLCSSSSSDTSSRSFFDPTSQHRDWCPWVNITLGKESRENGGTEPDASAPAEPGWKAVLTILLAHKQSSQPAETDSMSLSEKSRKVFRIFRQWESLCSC
UniProt Q8IUR7, whole entry: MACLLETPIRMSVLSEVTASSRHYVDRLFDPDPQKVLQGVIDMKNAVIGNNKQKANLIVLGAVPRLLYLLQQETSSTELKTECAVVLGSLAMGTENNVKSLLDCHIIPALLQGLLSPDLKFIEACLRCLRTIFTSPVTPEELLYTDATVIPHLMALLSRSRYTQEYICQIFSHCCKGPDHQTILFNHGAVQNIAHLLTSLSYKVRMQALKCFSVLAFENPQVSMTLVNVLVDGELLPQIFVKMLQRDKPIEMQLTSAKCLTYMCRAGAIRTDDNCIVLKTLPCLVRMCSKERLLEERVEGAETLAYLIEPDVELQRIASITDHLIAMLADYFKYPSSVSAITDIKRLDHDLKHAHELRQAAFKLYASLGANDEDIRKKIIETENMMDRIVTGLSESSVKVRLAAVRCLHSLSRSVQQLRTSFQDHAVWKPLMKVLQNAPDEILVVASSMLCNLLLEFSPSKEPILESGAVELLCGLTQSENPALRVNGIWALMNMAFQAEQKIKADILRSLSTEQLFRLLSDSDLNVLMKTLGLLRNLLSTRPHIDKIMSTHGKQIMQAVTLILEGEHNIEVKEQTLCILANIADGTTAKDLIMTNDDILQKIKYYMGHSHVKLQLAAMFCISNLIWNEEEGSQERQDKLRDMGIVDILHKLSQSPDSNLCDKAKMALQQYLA
UniProt Q86VR2, whole entry: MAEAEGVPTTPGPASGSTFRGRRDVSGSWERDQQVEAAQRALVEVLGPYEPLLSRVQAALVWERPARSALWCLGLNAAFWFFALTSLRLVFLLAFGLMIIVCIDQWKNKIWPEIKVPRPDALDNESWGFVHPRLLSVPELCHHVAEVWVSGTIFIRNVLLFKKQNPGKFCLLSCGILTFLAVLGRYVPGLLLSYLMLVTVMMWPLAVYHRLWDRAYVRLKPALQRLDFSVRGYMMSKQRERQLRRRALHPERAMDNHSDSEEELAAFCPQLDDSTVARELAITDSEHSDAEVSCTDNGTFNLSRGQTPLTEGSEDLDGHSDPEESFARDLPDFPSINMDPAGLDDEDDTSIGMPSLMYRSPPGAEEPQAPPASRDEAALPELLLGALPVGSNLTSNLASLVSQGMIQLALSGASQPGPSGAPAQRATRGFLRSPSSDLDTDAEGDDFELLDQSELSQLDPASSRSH
UniProt Q8IWZ8: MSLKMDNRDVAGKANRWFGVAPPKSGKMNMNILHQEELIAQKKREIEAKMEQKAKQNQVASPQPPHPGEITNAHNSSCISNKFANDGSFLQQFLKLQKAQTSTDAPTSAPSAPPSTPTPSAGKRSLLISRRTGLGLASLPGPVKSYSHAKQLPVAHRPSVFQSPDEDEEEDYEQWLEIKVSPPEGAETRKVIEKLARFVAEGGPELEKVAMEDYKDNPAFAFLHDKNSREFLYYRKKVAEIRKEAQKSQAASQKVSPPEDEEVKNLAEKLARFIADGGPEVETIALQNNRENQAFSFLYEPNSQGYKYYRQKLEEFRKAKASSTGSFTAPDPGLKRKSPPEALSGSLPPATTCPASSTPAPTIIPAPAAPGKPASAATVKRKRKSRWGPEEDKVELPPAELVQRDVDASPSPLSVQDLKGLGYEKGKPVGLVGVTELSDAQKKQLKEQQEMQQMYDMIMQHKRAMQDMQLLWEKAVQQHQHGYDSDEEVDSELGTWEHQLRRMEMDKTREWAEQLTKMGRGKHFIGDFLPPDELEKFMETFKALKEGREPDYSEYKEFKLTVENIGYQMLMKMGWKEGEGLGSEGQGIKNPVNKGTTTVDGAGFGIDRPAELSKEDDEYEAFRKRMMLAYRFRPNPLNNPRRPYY
UniProt Q8IXS2: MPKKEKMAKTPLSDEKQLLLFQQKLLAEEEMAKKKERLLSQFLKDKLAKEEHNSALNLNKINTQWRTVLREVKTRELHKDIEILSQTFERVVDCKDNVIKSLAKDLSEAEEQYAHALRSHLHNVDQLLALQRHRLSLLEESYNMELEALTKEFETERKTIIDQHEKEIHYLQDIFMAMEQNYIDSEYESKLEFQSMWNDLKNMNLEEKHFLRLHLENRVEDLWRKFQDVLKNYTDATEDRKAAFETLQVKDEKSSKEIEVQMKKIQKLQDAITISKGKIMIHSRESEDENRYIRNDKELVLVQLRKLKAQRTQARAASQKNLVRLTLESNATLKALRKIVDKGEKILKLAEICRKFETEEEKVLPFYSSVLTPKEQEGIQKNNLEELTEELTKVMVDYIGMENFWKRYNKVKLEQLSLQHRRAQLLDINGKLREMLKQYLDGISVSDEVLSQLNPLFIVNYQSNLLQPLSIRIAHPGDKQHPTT
UniProt Q86W92: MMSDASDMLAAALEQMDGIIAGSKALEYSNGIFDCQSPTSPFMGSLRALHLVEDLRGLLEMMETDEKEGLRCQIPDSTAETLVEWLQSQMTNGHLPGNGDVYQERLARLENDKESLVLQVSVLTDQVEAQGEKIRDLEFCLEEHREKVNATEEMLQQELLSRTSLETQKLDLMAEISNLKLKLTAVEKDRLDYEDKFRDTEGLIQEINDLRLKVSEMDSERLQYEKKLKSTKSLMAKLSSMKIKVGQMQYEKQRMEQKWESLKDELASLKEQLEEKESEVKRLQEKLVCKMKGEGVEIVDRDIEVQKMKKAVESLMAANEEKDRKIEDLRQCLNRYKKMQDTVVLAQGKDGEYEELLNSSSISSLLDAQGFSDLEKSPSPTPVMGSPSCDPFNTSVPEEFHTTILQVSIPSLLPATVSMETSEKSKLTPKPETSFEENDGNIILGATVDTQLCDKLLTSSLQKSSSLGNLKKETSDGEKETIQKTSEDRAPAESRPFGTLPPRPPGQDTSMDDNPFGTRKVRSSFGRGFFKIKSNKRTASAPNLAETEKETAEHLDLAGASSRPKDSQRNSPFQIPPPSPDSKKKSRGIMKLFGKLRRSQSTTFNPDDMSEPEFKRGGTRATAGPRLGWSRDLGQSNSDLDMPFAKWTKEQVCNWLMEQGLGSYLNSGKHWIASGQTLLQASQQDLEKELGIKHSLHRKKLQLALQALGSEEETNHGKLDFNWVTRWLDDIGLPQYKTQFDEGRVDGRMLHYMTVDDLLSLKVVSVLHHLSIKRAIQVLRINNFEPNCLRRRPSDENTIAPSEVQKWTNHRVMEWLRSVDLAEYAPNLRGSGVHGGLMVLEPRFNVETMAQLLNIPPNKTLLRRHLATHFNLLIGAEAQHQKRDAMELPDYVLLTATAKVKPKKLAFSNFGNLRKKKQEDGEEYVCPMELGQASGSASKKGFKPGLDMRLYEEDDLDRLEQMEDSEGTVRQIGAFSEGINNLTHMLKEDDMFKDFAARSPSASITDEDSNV
UniProt Q8IYB7: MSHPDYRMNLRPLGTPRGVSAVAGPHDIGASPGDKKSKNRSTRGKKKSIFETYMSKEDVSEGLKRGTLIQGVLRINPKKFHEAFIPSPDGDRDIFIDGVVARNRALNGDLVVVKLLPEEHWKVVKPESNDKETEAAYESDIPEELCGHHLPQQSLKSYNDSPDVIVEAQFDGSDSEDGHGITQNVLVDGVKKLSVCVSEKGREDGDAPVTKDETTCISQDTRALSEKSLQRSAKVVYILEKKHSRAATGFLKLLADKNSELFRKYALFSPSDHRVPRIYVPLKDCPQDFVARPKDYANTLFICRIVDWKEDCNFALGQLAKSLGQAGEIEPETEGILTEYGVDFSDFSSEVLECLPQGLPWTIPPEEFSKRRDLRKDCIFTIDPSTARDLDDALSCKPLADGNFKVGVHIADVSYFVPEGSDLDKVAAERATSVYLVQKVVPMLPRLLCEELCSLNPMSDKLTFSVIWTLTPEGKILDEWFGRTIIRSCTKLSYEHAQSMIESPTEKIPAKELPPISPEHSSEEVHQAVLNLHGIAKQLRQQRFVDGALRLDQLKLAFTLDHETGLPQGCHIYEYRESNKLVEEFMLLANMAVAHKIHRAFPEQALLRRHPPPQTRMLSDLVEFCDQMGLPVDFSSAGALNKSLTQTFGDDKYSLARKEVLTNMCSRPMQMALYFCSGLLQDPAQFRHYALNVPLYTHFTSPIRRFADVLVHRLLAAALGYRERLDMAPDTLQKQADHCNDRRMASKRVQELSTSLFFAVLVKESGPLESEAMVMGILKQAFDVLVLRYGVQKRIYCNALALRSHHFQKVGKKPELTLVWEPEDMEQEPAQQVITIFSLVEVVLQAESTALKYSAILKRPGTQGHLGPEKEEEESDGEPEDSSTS
UniProt Q8IVB5: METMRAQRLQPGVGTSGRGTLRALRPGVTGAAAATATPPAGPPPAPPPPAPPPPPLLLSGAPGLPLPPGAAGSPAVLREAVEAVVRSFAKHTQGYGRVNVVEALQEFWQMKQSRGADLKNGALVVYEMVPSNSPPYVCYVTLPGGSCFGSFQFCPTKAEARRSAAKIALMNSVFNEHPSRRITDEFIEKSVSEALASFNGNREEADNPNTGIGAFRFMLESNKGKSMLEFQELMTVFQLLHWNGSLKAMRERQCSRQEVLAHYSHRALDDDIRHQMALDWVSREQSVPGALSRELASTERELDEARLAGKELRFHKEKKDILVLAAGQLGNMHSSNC
UniProt Q8N4A0: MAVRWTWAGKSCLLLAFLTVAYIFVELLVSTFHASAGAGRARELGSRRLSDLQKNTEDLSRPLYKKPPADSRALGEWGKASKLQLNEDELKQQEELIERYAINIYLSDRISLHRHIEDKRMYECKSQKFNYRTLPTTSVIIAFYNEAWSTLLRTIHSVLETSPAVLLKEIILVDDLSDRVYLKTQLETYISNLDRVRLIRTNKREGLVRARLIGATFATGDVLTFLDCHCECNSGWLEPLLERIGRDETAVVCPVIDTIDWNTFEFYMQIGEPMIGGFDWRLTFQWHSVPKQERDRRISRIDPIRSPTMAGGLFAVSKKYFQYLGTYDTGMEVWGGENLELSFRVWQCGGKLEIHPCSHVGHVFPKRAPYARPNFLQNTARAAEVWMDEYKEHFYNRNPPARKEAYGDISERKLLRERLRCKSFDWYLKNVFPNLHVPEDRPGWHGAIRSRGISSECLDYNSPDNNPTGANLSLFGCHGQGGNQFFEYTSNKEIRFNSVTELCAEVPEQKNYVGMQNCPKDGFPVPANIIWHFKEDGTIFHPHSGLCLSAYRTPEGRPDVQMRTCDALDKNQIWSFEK

Compound: CCc1cnccc1C(=O)Nc1cc2c(cc1F)NC(=O)CC2
Experiment: melting temperature shift (DMSO Tm minus MBE1-treated Tm) in cellular thermal proteome profiling; higher = less thermal stabilization by MBE1 (negative = stabilized by MBE1)
Details: A375

| Target | melting temperature shift (MBE1 concentration: 100 nM) [°C] | melting temperature shift (MBE1 concentration: 1 uM) [°C] |
| --- | --- | --- |
| C2CD5 (UniProt Q86YS7) | -0.147 | 0.287 |
| DNAJC10 (UniProt Q8IXB1) | -1.47 | -0.114 |
| TTC39C (UniProt Q8N584) | -1.05 | 0.263 |
| ZC3HC1 (UniProt Q86WB0) | -0.734 | -0.576 |
| ARMC8 (UniProt Q8IUR7) | 0.342 | 0.25 |
| XRN1 (UniProt Q8IZH2) | -0.971 | -0.562 |
| UniProt Q8IXK0 | -0.378 | -0.98 |
| FAM134C (UniProt Q86VR2) | -1.64 | 1.19 |
| HOOK3 (UniProt Q86VS8) | 0.33 | -0.263 |
| UniProt Q8IVS2 | -0.268 | 0.923 |
| UBE2J2 (UniProt Q8N2K1) | 0.525 | -0.0794 |
| UniProt Q8N567 | -2.08 | 0.495 |
| CISD2 (UniProt Q8N5K1) | -0.269 | -2.05 |
| SBF2 (UniProt Q86WG5) | 1.75 | 0.946 |
| SUGP1 (UniProt Q8IWZ8) | -0.353 | -0.786 |
| UniProt Q8IXS2 | -2.18 | 3.87 |
| ASCC3 (UniProt Q8N3C0) | -0.57 | -0.545 |
| PPFIBP1 (UniProt Q86W92) | -0.814 | -0.306 |
| DIS3L2 (UniProt Q8IYB7) | 0.208 | 0.0305 |
| WDR75 (UniProt Q8IWA0) | -0.0659 | 0.372 |
| LIX1L (UniProt Q8IVB5) | -0.792 | -0.527 |
| UniProt Q8N7R7 | 1.91 | 1.25 |
| UniProt Q8N4A0 | 0.678 | 0.898 |
